PubChem BioAssay AID1508588 – Peter MacCallum Cancer Centre – 2020

Purpose: 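Which gene losses make BRAF-mutant melanoma cells more responsive to vemurafenib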 (primary screen)
System: human WM266.4 melanoma cells (BRAF V600 mutant)
Knock-down reagent: siRNA pool against human genes, 40 nM
Timing: 96 h from transfection to read-out
Treatment: vemurafenib 300 nM (about IC25), added 48 h after transfection, for 48 h; comparison arm got DMSO vehicle only
Measured: 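Cell gain (DAPI nuclei at end minus before drug, mean of two replicates) and medium lactate by absorbance per cell, both as ratio to non-targeting siRNA, also grouped into fold-change classes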
Reading the numbers: cell gain with vemurafenib: higher = more cell gain than with non-targeting siRNA; lactate per cell with vemurafenib: higher = more lactate made per cell
Rule for the call: 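Enhancement is called by pairing each knock-down's vehicle-arm and drug-arm fold-change classes for viability or glycolysis; which class combinations qualify is not given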
Calls: active = enhances vemurafenib effect; inactive = no enhancement seen
In all, the deposit lists about 18,000 reagents; below is an unselected part. 790 of all reagents (4.4%) count as active. 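Calls rest on a combination of fold-change classes in drug and vehicle arms, not all shown here.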 A number with no mark means an inactive call.

| target | cell gain with vemurafenib | lactate per cell with vemurafenib |
| --- | --- | --- |
| PGLS (6-phosphogluconolactonase) | 0.23 | 0.99 |
| CYP46A1 (cytochrome P450 family 46 subfamily A member 1) | 0.92 | 0.99 |
| DDX4 (DEAD-box helicase 4) | 0.53 | 0.76 |
| FKBP8 (FKBP prolyl isomerase 8) | 0.55 | 0.8 |
| TMED2 (transmembrane p24 trafficking protein 2) | 0.88 | 0.78 |
| TACR2 (tachykinin receptor 2) | 0.47 | 0.82 |
| HLA-K (major histocompatibility complex, class I, K (pseudogene)) | 0.59 | 1.31 |
| TUBB8 (tubulin beta 8 class VIII) | 0.52 | 1.34 |
| MNDA (myeloid cell nuclear differentiation antigen) | 0.69 | 1.56 |
| VCF2 (VCP nuclear cofactor family member 2) | -0.12 (active) | -0.01 |
| SMARCD2 (SWI/SNF related BAF chromatin remodeling complex subunit D2) | 0.44 | 1.2 |
| PTP4A2 (protein tyrosine phosphatase 4A2) | 0.43 | 2.03 |
| LCP1 (lymphocyte cytosolic protein 1) | 0.62 | 1.23 |
| TMOD3 (tropomodulin 3) | 0.42 | 0.83 |
| NDFIP1 (Nedd4 family interacting protein 1) | 0.7 | 0.22 |
| FCGBP (Fc gamma binding protein) | 0.72 (active) | 0.52 |
| CD248 (CD248 molecule) | 0.86 | 0.94 |
| HLA-DQA1 (major histocompatibility complex, class II, DQ alpha 1) | 0.56 | 0.62 |
| AHNAK (AHNAK nucleoprotein) | 0.74 | 0.83 |
| GSTM2 (glutathione S-transferase mu 2) | 0.19 | 0.62 |
| CDC50B (cell division cycle 50 P4-ATPase accessory subunit B) | 0.87 | 0.62 |
| OR4N3P (olfactory receptor family 4 subfamily N member 3 pseudogene) | 0.67 | 1.19 |
| ZXDC (ZXD family zinc finger C) | 0.31 | 0.92 |
| OR2F1 (olfactory receptor family 2 subfamily F member 1) | 0.34 | 0.62 |
| PABPC4 (poly(A) binding protein cytoplasmic 4) | 0.66 | 1.02 |
| HS2ST1 (heparan sulfate 2-O-sulfotransferase 1) | 0.62 | 0.24 |
| MRPL53 (mitochondrial ribosomal protein L53) | 0.49 | 0.88 |
| POMGNT2 | 0.5 | 1.36 |
| SLC1A6 | 0.3 | 1.31 |
| COL19A1 (collagen type XIX alpha 1 chain) | 0.65 | 0.76 |
| IDNK (IDNK gluconokinase) | 1.08 | 0.52 |
| KRTAP10-10 (keratin associated protein 10-10) | -0.12 (active) | -0.34 |
| OSGEPL1 (O-sialoglycoprotein endopeptidase like 1) | 0.74 | 1.02 |
| PTER (phosphotriesterase related) | 0.48 | 0.6 |

Records above whose target name starts with M or m (2):
| target | cell gain with vemurafenib | lactate per cell with vemurafenib |
| --- | --- | --- |
| MNDA (myeloid cell nuclear differentiation antigen) | 0.69 | 1.56 |
| MRPL53 (mitochondrial ribosomal protein L53) | 0.49 | 0.88 |
